These are yes or no findings as the source states them, for the method shown. In cells and extracts the contact can be indirect. Some binding calls cover weakened binding; strength is not graded here.
Molecular target: T1, UHRF1-mCherry (UniProt Q96T88)
T1 sequence: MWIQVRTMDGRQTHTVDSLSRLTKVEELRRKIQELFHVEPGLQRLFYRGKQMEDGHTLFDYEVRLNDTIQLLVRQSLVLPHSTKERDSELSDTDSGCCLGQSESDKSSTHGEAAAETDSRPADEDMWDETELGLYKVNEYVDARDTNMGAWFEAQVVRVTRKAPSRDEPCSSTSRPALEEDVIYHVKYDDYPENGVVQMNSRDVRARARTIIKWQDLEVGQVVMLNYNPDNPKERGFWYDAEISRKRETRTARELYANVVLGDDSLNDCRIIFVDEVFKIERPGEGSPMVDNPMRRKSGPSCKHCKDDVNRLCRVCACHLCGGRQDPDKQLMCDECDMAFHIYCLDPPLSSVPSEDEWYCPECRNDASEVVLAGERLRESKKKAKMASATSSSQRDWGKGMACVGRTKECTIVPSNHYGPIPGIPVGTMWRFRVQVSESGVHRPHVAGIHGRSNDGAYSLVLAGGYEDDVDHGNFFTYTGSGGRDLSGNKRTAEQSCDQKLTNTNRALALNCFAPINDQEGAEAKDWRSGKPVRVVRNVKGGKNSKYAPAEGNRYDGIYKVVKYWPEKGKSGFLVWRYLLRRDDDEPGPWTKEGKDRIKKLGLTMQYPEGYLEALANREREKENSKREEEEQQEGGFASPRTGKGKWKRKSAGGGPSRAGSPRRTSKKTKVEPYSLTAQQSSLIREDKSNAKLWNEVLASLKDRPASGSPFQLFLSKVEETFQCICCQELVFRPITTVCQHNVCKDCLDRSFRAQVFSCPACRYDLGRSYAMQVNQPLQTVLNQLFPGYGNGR
Experiment: co-IP; HeLa cells (untransfected or transfected), lysed by freeze shock and sonication in PBS with protease inhibitors; 800 μg to 1 mg lysate with antibody (anti-mCherry, anti-eGFP or anti-UHRF1) 4 h at 4 °C, Dynabeads Protein A 1 h at 4 °C, five washes; Western blot

Protein sequences, listed by entry. Tags and fused reporters are not part of them.
UniProt Q92993: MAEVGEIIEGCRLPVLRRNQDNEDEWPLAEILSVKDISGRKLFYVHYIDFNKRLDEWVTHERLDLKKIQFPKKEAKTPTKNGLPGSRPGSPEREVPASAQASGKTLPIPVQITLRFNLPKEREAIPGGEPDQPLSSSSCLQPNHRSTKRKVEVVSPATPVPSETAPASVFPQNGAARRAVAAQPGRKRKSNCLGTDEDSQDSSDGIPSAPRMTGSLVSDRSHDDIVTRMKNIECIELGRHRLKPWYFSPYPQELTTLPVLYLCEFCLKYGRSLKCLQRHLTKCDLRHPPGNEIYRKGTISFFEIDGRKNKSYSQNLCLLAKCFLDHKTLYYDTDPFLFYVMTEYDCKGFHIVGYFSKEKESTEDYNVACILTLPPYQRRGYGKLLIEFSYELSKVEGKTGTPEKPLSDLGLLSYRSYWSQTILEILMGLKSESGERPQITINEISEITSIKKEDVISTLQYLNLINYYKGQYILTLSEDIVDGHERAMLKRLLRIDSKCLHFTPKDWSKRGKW

| Substance | binding |
| --- | --- |
| TIP60-eGFP wild type (from UniProt Q92993 1-513) | binds |
| endogenous TIP60 (from UniProt Q92993 1-513) | binds |

Reference: publication PMC5740878
